Measured values from patent publication US5837673 (dated 1998).

Assay: general procedure: solution-phase peptide synthesis; N,N'-dicyclohexylcarbodiimide with 4-dimethylaminopyridine (ester-linked example)
Conditions: hydrochloride; for step yield: late stage modification step; for conjugation yield: conjugation step

Substance | step yield [%] | conjugation yield [%]
7-ethyl-10-[3'-(glycyl-glycyl-glycyl-glycylamino)propyloxy]-(20S)-camptothecin hydrochloride | 99 | 
10-[3'-(t-butoxycarbonyl-glycyl-glycyl-L-phenylalanyl-glycylamino)propyloxy]-7-ethyl-(20S)-camptothecin |  | 62
7-ethyl-10-[3'-(t-butoxycarbonyl-glycyl-glycyl-L-phenylalanyl-glycyloxy)propyloxy]-(20S)-camptothecin |  | 74
7-ethyl-10-{2'-[2"-(t-butoxycarbonyl-glycyl-glycyl-L-phenylalanyl-glycylamino)ethyloxy]ethyloxy}-(20S)-camptothecin |  | 79
7-Ethyl-10-[3'-(t-butoxycarbonyl-glycyl-glycyl-glycyl-glycylamino)propyloxy]-(20S)-camptothecin |  | 84
10-[3'-(glycyl-glycyl-L-phenylalanyl-glycylamino)propyloxy]-7-ethyl-(20S)- camptothecin hydrochloride | 88 | 
7-ethyl-10-[3'-(glycyl-glycyl-L-phenylalanyl-glycyloxy)-propyloxy]-(20S)-camptothecin hydrochloride | 72 | 
7-ethyl-10-{2'-[2"-(glycyl-glycyl-L-phenylalanyl-glycyl-amino)ethyloxy]ethyloxy}-(20S)-camptothecin hydrochloride | 65 | 
